The other results are listed elsewhere or left out. This data set is noisy: repeats of one test often differ as much as different tests do.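 U2OS cells carrying ACE2 were mixed with U2OS cells carrying full-length spike, and fusion was scored by imaging as the share of nuclei showing both cell types' fluorescent markers. A compound counts as an inhibitory hit when it is non-toxic and its fusion z-score falls below -3, meaning more than three standard deviations below the plate's DMSO wells.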

The subject of the assay is U2OS ACE2 x SARS-CoV-2 spike co-culture. Description: cell-cell fusion (fraction fused) z-score vs plate DMSO control; higher = more fusion. Particulars: 30 µM; 5 h; toxicity class: non-toxic, passed QC.
For `CC(C)(C)CC(=O)OCC(=O)[C@@]1(O)CCC2C3CCC4=CC(=O)C=C[C@]4(C)C3[C@@H](O)C[C@@]21C` (stereo not given in full), the “cell-cell fusion (z-score)” value is inactive: 1.24.
On to `CCC(CC)[C@H](NC(C)=O)[C@@H]1[C@H](O)[C@@H](C(=O)O)C[C@H]1NC(=N)N.O.O.O` [Peramivir Trihydrate], for which the “cell-cell fusion (z-score)” value was inactive: 0.414.
For the compound `Cl.Cl.OCCN1CCN(CCCN2c3ccccc3Sc3ccc(C(F)(F)F)cc32)CC1`, the “cell-cell fusion (z-score)” value was inactive: 2.75.
With `CCC(C)[C@H]1O[C@]2(C=C[C@@H]1C)C[C@@H]1C[C@@H](C/C=C(\C)[C@@H](OC3C[C@H](OC)C(O[C@H]4C[C@H](OC)[C@@H](O)[C@H](C)O4)[C@H](C)O3)[C@@H](C)/C=C/C=C3\CO[C@@H]4[C@H](OC)C(C)=C[C@@H](C(=O)O1)[C@]34O)O2` (stereo not given in full), the “cell-cell fusion (z-score)” value was inactive: -1.65.
Take `COc1ccc2c(=O)ccoc2c1`: the “cell-cell fusion (z-score)” value was inactive: 3.68.
`NC(Cc1cccc(-c2ccccc2CP(=O)(O)O)c1)C(=O)O` (stereo not drawn) [Phenylbenzene-omega-phosphono-alpha-amino acid]: the “cell-cell fusion (z-score)” value was inactive: 1.61.
With `O=C(O)c1cc(=O)cc(C(=O)O)[nH]1` [Chelidamic acid], the “cell-cell fusion (z-score)” value was inactive: 2.17.
`CO/N=C1/C[C@]2(C[C@@H]3C[C@@H](C/C=C(\C)C[C@@H](C)/C=C/C=C4\CO[C@@H]5[C@H](O)C(C)=C[C@@H](C(=O)O3)[C@]45O)O2)O[C@H](/C(C)=C/C(C)C)[C@H]1C`: the “cell-cell fusion (z-score)” value is inactive: 2.53.
As to `CNCCCN1c2ccccc2CCc2ccccc21.Cl`, the “cell-cell fusion (z-score)” value was inactive: 0.207.
With `CNCCCN1c2ccccc2CCc2ccccc21.Cl` [Desipramine hydrochloride], the “cell-cell fusion (z-score)” value is inactive: 4.46.
On to `Cc1cc2c(cc1Cl)N(C(=O)Nc1ccc(Oc3cccnc3C)nc1)CC2.Cl.Cl`, for which the “cell-cell fusion (z-score)” value was inactive: -1.88.
For the compound `N#CCCN.N#CCCN.O=C(O)/C=C/C(=O)O` [3-Aminopropionitrile fumarate], the “cell-cell fusion (z-score)” value is inactive: 1.95.
Then `O=P1(NCCCl)OCCCN1CCCl` (stereo not given) [Ifosfamide], with inactive: 2.4; and `O=P1(NCCCl)OCCCN1CCCl` (stereo not given), with inactive: 2.62.
Then `Cl.OC1CCCCC1N1CCC(c2ccccc2)CC1` (racemic) [(±)-Vesamicol hydrochloride], with inactive: 1.42.
Then `NCC(CC(=O)O)c1ccc(Cl)cc1` (racemic) [(±)-Baclofen], with inactive: 1.9.
On to `COc1ccc(/C=C/C(=O)Nc2ccccc2C(=O)O)cc1OC` [Tranilast], for which the “cell-cell fusion (z-score)” value is active: -5.81.
Under `CCOc1ccc2nc(S(N)(=O)=O)sc2c1` [Ethoxzolamide] stands inactive: 1.32; under `O=C(O)c1cc(/N=N/c2ccc(S(=O)(=O)Nc3ccccn3)cc2)ccc1O` [Sulfasalazine], inactive: 2.87; under `O=C(NCC(O)CO)c1c(I)c(C(=O)NCC(O)CO)c(I)c(N(CCO)C(=O)CO)c1I` (stereo not given), inactive: 4.48.
Then `CC(C)(C)CC(C)(C)c1ccc(O)c(Cc2ccc(Cl)cc2Cl)c1`, with inactive: 3.47; and `CCCCCCOC(=O)NC(=N)c1ccc(NCc2nc3cc(C(=O)N(CCC(=O)OCC)c4ccccn4)ccc3n2C)cc1.CS(=O)(=O)O` [Dabigatran Etexilate Mesylate], with inactive: 0.05.
Then `CN(C)C(=O)Oc1cccc([N+](C)(C)C)c1.[Br-]` [Neostigmine bromide], with inactive: 2.52; and `CCN(CC)CCOC(=O)c1ccc(N)cc1.Cl`, with inactive: 0.419.
For `CCN(CC)CCOC(=O)c1ccc(N)cc1.Cl` [Procaine hydrochloride], the “cell-cell fusion (z-score)” value is inactive: 3.32.
Turning to `C#CC1(O)CCC2C3CCC4=CC(=O)CCC4(C)C3CCC21C` (stereo not given), the “cell-cell fusion (z-score)” value was inactive: 2.54.
Under `Cl.N#Cc1ccc(N2CCN(C(=O)COc3ccc4[nH]cc(CCN)c4c3)CC2)cc1` [Donitriptan monohydrochloride] stands inactive: 1.07.
For `COc1cc(OC)c(OC)cc1C=O`, the “cell-cell fusion (z-score)” value was inactive: 1.18.
Consider `Nc1ccccc1S(N)(=O)=O`, for which the “cell-cell fusion (z-score)” value is inactive: 1.96.
As to `Cc1cc(C2CCCCC2)n(O)c(=O)c1.NCCO`, the “cell-cell fusion (z-score)” value was inactive: -0.457.
For the compound `c1coc(CNc2ncnc3[nH]cnc23)c1`, the “cell-cell fusion (z-score)” value was inactive: 3.19.
Under `CC(C)c1c(O)c(-c2cc3c(c(C(C)C)c2O)CCC2C(C)(C)CCC[C@]32C)cc2c1CCC1C(C)(C)CCC[C@]21C` (stereo not given in full) stands inactive: 2.77; under `CCCN(CCC)CCc1cccc2c1CC(=O)N2.Cl`, inactive: 0.928; under `Nc1ncnc2c1nc(Br)n2C1OC2CO[P@@](=O)([O-])O[C@@H]2C1O.[Na+]` (stereo not given in full) [8-Bromo-cAMP sodium], inactive: 1.4.
Then `CS(=O)(=O)c1ccc(C2=C(c3ccccc3)C(=O)OC2)cc1` [Rofecoxib], with inactive: 2.23.
As for `CC(c1cc2ccccc2s1)N(O)C(N)=O` (stereo not given) [Zileuton], the “cell-cell fusion (z-score)” value was inactive: 1.54.
Under `CC1(C)O[C@@H]2CC3C4CCC5=CC(=O)C=C[C@]5(C)C4[C@@H](O)C[C@]3(C)[C@]2(C(=O)CO)O1` (stereo not given in full) stands inactive: 2.63; under `CCOc1ccc(Cc2nccc3cc(OCC)c(OCC)cc23)cc1OCC.Cl`, inactive: -0.391.
Under `CCCCOc1ccc(OCCCN2CCOCC2)cc1.Cl` stands inactive: 4.48.
Then `COC(=O)c1c(C)c2c(c(C)c1O)OC(=O)c1c(C)c(Cl)c(O)c(Cl)c1O2`, with inactive: 1.7; and `C=CC(C)(O)CC/C=C(\C)CCC=C(C)C` (stereo not given), with inactive: 2.36; and `CC(=O)OCC(=O)[C@@]1(O)[C@H](C)C[C@H]2[C@@H]3CCC4=CC(=O)C=C[C@]4(C)[C@@]3(F)[C@@H](O)C[C@@]21C` [Dexamethason acetate], with inactive: 4.01.
For `Cl.Cl.NCCCCN` [Putrescine dihydrochloride], the “cell-cell fusion (z-score)” value was inactive: 1.78.
In the case of `Cl.Cl.NCCCCN`, the “cell-cell fusion (z-score)” value was inactive: 1.63.
Under `N=C1NCC[C@H]([C@@H]2NC(=O)/C(=C/NC(N)=O)NC(=O)[C@H](CNC(=O)CC(N)CCCN)NC(=O)[C@H](CO)NC(=O)[C@@H](N)CNC2=O)N1.O=S(=O)(O)O.O=S(=O)(O)O` (stereo not given in full) [Capastat sulfate] stands inactive: 1.99; under `O=C(O)c1cc(O)c(O)c(O)c1`, inactive: 1.61.
Under `Nc1nc(Cl)nc2c1ncn2[C@@H]1O[C@H](COP(=O)([O-])OP(=O)([O-])OP(=O)([O-])[O-])[C@H](O)C1O.[Na+].[Na+].[Na+].[Na+]` (stereo not given in full) [2-Chloroadenosine triphosphate tetrasodium] stands inactive: 0.295; under `C[N+](C)(C)CCOP(=O)([O-])OP(=O)([O-])OC[C@H]1O[C@@H](n2ccc(N)nc2=O)C(O)[C@H]1O.O.O.[Na+]` (stereo not given in full) [Cytidine 5'-diphosphocholine sodium salt hydrate], inactive: 3.14.
Turning to `C[C@]12CCC(=O)C=C1CCc1ccc(O)cc12`, the “cell-cell fusion (z-score)” value was inactive: 2.02.
Under `Oc1cc2c(cc1O)C1c3ccc(O)c(O)c3OCC1(O)C2` (stereo not given) stands inactive: 2.07; under `CN(C)C(=N)NCCC[C@H](N)C(=O)O.Cl` [N^G,N^G-Dimethylarginine hydrochloride], inactive: 3.35.
Under `COc1ccc2cc1Oc1ccc(cc1)C[C@H]1c3cc(c(OC)cc3CCN1C)Oc1c(OC)c(OC)cc3c1[C@H](C2)N(C)CC3` stands inactive: 2.43; under `Oc1ncnc2[nH]ncc12` [Allopurinol], inactive: 2.58; under `Cc1c(OCC(F)(F)F)ccnc1C[S@@](=O)c1nc2ccccc2[nH]1` [R-(+)-Lansoprazole], inactive: 2.05.
As to `COc1ccc(C2C(=O)c3ccccc3C2=O)cc1`, the “cell-cell fusion (z-score)” value was inactive: 0.0852.
Under `O=C1c2ccccc2C(=O)C1c1ccc(Br)cc1` stands inactive: 3.78.
Then `CNCC(O)c1ccc(O)c(O)c1.Cl` (racemic) [(±)-Epinephrine hydrochloride], with active: -5.58; and `CC(CCc1ccccc1)NC(C)C(O)c1ccc(O)cc1.Cl` (stereo not given), with inactive: -0.946.
Under `CC(CCc1ccccc1)NC(C)C(O)c1ccc(O)cc1.Cl` (stereo not given) [Nylidrin hydrochloride] stands inactive: 1.65.
With `CS(=O)(=O)O.Cc1c(O)cccc1C(=O)N[C@@H](CSc1ccccc1)[C@H](O)CN1C[C@H]2CCCC[C@H]2C[C@H]1C(=O)NC(C)(C)C` [Nelfinavir Mesylate], the “cell-cell fusion (z-score)” value is active: -7.82.
Then `C=CCN1CC[C@]23c4c5ccc(O)c4O[C@H]2[C@@H](OCCOCCOCCOCCOCCOCCOCCOC)CC[C@@]3(O)[C@H]1C5.O=C(O)C(=O)O` [Naloxegol oxalate], with inactive: 1.17; and `CC1=C(/C=C/C(C)=C/C=C/C(C)=C\C(=O)O)C(C)(C)CCC1` [13-cis-retinoic acid], with inactive: 1.48.
On to `CC1=C(/C=C/C(C)=C/C=C/C(C)=C\C(=O)O)C(C)(C)CCC1`, for which the “cell-cell fusion (z-score)” value was inactive: 3.4.
Under `C/C=C/c1ccc(OC)cc1` stands inactive: 2.79.
Under `O=C(O)[C@H](O)[C@@H](O)[C@H](O[C@@H]1O[C@H](CO)[C@H](O)[C@H](O)[C@H]1O)[C@H](O)CO` stands inactive: 1.85; under `C[C@H]1C[C@@H](O)[C@]2(O)[C@@]13CC(=O)OC[C@@]2(C)[C@](C)(O)C(=O)C3`, inactive: 1.65.
Then `COc1ccnc(CS(=O)c2nc3cc(OC(F)F)ccc3[n-]2)c1OC.O.[Na+]` (stereo not given) [Pantoprazole Sodium Hydrate], with inactive: 2.79; and `Cc1cc([C@@H](C)Nc2ccccc2C(=O)O)c2nc(N3CCOCC3)cc(=O)n2c1`, with inactive: -0.544.
As to `N#CC[C@H](C1CCCC1)n1cc(-c2ncnc3[nH]ccc23)cn1` [Ruxolitinib], the “cell-cell fusion (z-score)” value is inactive: -2.83.
Turning to `C[C@H]1CC2C3CCC4=CC(=O)C=C[C@]4(C)[C@@]3(Cl)[C@@H](O)C[C@]2(C)[C@@]1(O)C(=O)CO` (stereo not given in full) [Beclomethasone], the “cell-cell fusion (z-score)” value was inactive: 2.5.

Source of the values: the supplement of paper PMC8104966.
